Entries after “also recorded” stand apart in the source; their conditions may differ. At least one compound was matched to its structure with a doubt left.
Test system: TG2 activation in T84 monolayers
Assay: IFN-γ induced TG2 activation in T84 monolayers, 5BP incorporation ELISA
Assay type: cell-based, human
Conditions: IFN-γ up to 1000 U/mL, 10 μM LY294002
Experimental: FIG. 2. Dose and time dependence of TG2 activation in response to IFN-γ treatments of T84 monolayers measured in a quantitative enzyme linked immunosorbent type assay. T84 monolayers were treated for 1 to 72 hrs at 0-1000 U/mL IFN-γ with or without TG2 inhibition using 25 μM ERW1041E. TG2 activation was quantified by the amount of 5BP crosslinked to native proteins in the T84 cells as measured by tetramethylbenzidine turnover via streptavidin-HRP labeling. 5BP incorporation is dependent on IFN-γ exposure concentration. […] Data reported as mean+/−standard deviation.
FIG. 3. […] (B) Dose and time dependence of TG2 activation in response to IFN-γ treatments of T84 monolayers measured in a quantitative enzyme linked immunosorbent type assay. […] TG2 activation was quantified by the amount of 5BP crosslinked to native proteins in the T84 cells as measured by tetramethylbenzidine turnover via streptavidin-HRP labeling. […]
In addition to increasing the paracellular permeability of antigenic gluten peptides, we sought to determine if IFN-γ could activate TG2 in the extracellular matrix of mature T84 monolayers. […] To quantify the extent to which IFN-γ activates TG2 in the T84 model system, an enzyme linked immunosorbent assay (ELISA) was developed, using streptavidin conjugated to horseradish peroxidase. […]

## O=c1cc(N2CCOCC2)oc2c(-c3ccccc3)cccc12 [LY294002]
  TG2 activation (5BP incorporation): fully negates; also recorded: reduced to basal levels

Source: patent US20140322278A1, “Modulation of Tissue Transglutaminase Activation in Disease” (The Board of Trustees of the Leland Stanford Junior …, priority 2011, published 2014)
